The record followed here is patent US20220304349A1, “Steviol Glycoside Compositions for Oral Ingestion or Use” (CARGILL, Incorporated, priority 2016, published 2022).

SMILES strings stand for the structures.

The subject of this data set is UGT 76G1 and EUGT11. In words: Bioconversion of steviol glycosides with crude UGT enzyme preparations expressed in E. coli, LC-UV analysis. It counts as biochemical. The following applies: 2 mM substrate fed, overnight at 30° C. The protocol:
The wildtype genes for UGTs EUGT11 and 76G1 are cloned individually into E. coli XjB-autolysis BL21(DE3) cells using the pET30 vector system from Novagen (EMD4 Biosciences, Madison, Wis.). All vectors use an IPTG-inducible promoter. Plasmid DNA is transformed into chemically competent cells as described by the vendor.
For in vitro assays, transformants displaying the desired antibiotic resistance are grown overnight at 30° C. in 2 mL cultures using NZCYM-media and antibiotic. The following day, the cultures are induced to a final concentration of 0.3 mM IPTG and 3 mM arabinose, and grown for 24 h at 20° C. The cells are then harvested by centrifugation at 4000 rpm for […] and resuspended in 200 μL GT-buffer (RBC Bioscience) and 3 tablets/100 ml of Complete mini, protease inhibitor (Roche), transferred to Eppendorf tubes, vortexed and frozen at −80° C. for 1.5 hour. Cells are thawed on ice, and left at room temperature for 3 minutes. When approximately half-way thawed, 15 μl of 0.14 mg/ml H2O DNase solution+30 μl 0.05M MgCl2 is added to each tube and the samples are incubated for approximately 5 minutes at room temperature. The cells are centrifuged at maximum speed for 5 minutes. One-hundred μL of supernatant (lysate) is transferred to fresh microfuge tubes, and 100 μL of glycerol is added.
Bioconversions are performed in a sealed vial with 0.05 M phosphate buffer, pH=7.0, 3 mM of MgCl2, 4 mM UDP-glucose (disodium salt, Calbiochem, 10× stock solution is prepared in 0.05 M phosphate buffer, pH=7.0), 2 mM substrate (10× rebaudioside A stock solution is prepared in 0.05 M phosphate buffer, pH=7.0, or 10× rebaudioside D stock solution is prepared in 60% DMSO, or other glycosides), and 5-10 μL of the crude enzyme preparations described above. Various starting steviol glycosides are incubated with UGT 76G1 and EUGT11 overnight at 30° C. Following centrifugation at 4000 rpm for 5 minutes, 20 μL samples are diluted with 180 μL water. The samples are then subjected to LC-UV analysis.

Where [1] appears, read: Mix of 2 crude UGT preparations.

As for `C=C1C[C@@]23CC[C@H]4[C@@](C)(CCC[C@@]4(C)C(=O)O[C@@H]4O[C@H](CO)[C@@H](O)[C@H](O)[C@H]4O)[C@@H]2CC[C@]1(O[C@@H]1O[C@H](CO)[C@@H](O)[C@H](O[C@@H]2O[C@H](CO)[C@@H](O)[C@H](O)[C@H]2O)[C@H]1O[C@@H]1O[C@H](CO)[C@@H](O)[C@H](O)[C@H]1O)C3` [Reb A, rebaudioside A], the Products result is on record as “Various steviol glycoside” under setting [1] and “Rebaudioside D, various” (UGT clone EUGT11).
`C=C1C[C@@]23CC[C@H]4[C@@](C)(CCC[C@@]4(C)C(=O)O[C@@H]4O[C@H](CO)[C@@H](O)[C@H](O)[C@H]4O[C@@H]4O[C@H](CO)[C@@H](O)[C@H](O)[C@H]4O)[C@@H]2CC[C@]1(O[C@@H]1O[C@H](CO)[C@@H](O)[C@H](O[C@@H]2O[C@H](CO)[C@@H](O)[C@H](O)[C@H]2O)[C@H]1O[C@@H]1O[C@H](CO)[C@@H](O)[C@H](O)[C@H]1O)C3` [Reb D, rebaudioside D]: the Products entry under setting [1] is reported as “Various steviol glycoside”.
